## Results of single-concentration screens

Chains of the proteins cited; added tags and fusions are not shown. Residues count along the entry.
UniProt I6X8D2, whole entry: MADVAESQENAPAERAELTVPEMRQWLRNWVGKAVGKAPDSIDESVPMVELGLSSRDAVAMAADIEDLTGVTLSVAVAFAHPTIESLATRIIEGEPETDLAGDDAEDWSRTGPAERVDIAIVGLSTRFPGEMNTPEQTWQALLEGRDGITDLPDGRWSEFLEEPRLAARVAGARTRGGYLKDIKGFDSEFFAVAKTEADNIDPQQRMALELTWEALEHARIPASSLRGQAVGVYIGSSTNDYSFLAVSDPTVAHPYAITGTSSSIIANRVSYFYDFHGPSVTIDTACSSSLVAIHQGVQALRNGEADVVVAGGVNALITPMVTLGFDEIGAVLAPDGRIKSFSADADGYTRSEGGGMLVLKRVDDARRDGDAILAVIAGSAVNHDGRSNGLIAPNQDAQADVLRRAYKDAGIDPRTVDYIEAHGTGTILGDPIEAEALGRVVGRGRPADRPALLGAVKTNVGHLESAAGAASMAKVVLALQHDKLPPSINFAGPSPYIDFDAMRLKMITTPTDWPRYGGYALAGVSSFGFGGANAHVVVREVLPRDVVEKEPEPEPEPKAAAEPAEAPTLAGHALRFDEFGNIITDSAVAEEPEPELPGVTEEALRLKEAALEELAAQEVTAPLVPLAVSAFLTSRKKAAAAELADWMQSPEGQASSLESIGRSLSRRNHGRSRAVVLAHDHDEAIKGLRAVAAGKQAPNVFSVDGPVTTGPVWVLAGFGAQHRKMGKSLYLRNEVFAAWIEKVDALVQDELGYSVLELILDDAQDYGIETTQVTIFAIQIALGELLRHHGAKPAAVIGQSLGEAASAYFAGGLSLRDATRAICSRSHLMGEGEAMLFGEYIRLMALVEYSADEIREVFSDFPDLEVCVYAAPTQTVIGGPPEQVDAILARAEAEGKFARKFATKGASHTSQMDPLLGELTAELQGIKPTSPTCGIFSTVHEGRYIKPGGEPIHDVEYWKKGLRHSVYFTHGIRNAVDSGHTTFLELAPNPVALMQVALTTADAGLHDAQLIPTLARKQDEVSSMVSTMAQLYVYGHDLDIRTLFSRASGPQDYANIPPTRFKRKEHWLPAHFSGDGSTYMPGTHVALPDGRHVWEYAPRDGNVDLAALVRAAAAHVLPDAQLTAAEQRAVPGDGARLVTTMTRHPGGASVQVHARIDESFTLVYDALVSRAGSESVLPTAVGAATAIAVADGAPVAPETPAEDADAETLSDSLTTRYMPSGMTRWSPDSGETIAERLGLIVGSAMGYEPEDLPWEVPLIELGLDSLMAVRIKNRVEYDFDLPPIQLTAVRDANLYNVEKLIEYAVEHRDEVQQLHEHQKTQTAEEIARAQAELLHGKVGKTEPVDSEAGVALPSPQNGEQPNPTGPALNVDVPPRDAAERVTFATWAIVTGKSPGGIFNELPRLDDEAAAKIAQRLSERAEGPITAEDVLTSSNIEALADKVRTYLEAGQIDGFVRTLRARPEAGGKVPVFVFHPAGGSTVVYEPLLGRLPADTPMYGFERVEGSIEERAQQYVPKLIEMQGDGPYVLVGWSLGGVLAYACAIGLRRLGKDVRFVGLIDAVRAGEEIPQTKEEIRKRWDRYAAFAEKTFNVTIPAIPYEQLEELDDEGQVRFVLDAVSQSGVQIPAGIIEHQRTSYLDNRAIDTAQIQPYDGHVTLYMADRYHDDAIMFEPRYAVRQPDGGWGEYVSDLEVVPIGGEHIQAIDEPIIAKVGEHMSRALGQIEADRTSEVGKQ
UniProt Q4DA54, 1-478: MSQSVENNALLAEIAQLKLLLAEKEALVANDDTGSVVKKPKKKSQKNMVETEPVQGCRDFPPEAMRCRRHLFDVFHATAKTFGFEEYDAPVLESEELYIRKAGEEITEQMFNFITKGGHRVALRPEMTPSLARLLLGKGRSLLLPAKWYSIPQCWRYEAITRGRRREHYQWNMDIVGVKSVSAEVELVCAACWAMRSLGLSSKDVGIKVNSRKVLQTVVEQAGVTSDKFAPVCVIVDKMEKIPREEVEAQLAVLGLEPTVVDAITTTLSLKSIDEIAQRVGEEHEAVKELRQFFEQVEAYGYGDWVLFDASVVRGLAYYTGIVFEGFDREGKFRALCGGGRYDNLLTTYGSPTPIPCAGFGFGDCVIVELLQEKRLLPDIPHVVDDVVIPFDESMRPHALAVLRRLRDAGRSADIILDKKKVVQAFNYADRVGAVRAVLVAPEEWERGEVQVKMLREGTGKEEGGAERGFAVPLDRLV

Pks13 thioesterase: 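Polyketide synthase Pks13, Mycobacterium tuberculosis (UniProt I6X8D2). Enzyme assay of the thioesterase domain of polyketide synthase 13; the read-out is not stated. Compounds at 30 µM. Higher reads as stronger inhibition (inferred from which compounds were picked for retests). Size under these conditions: about 67,000 compounds, about 300 of them at 50% or above in at least one test.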
TcHisRS: 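Histidine-tRNA ligase, Trypanosoma cruzi CL Brener (UniProt Q4DA54). Enzyme assay of histidyl-tRNA synthetase; the read-out is not stated. Compounds at 30 µM. Direction is inferred from retests: higher values go with stronger inhibition. About 69,000 compounds were tested under these conditions; 0.045% (about 31) showed 50% or more at least once.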

Each number is a percent effect as filed. The record does not define 0% and 100%; most values in the screen are far below 50% and negative numbers occur (in some assays of this library far below -100). Compounds were drawn at random from those tested, without regard to their results. A dash means the value is not listed here; it may have been measured.

| # | structure | Pks13 thioesterase | TcHisRS |
|---|---|---|---|
| 1 | `O=C(c1ncoc1-c1ccco1)N1CCCN(c2ncccn2)CC1` | 1.487 | -0.8403 |
| 2 | `COc1cncc(N2CCN(Cc3ccco3)CC2)n1` | -10.73 | 20.69 |
| 3 | `O=C(NCCc1noc(C2CCCO2)n1)c1cn2ccsc2n1` (configuration not stated) | -10.69 | 7.2 |
| 4 | `CCN(C(=O)c1ccc2nnc(C3CCN(CCOC)C3)n2c1)C(C)C` (configuration not stated) | -35.15 | -1.031 |
| 5 | `O=C(CN1CCCC1Cn1cccn1)NC1CCOCC1` (configuration not stated) | -12.26 | 0 |
| 6 | `Cn1cncc1CN1CCc2nc3sccc3c(=O)n2CC1` | -25.1 | 3.714 |
| 7 | `CC(=O)N1CCCC2(CCN(c3nncs3)C2)C1` (configuration not stated) | 4.296 | -1.031 |
| 8 | `CC(C)CNC(=O)COc1cccc[n+]1[O-]` | -24.14 | 5.946 |
| 9 | `Cc1ccc(S(C)(=O)=O)cc1C(=O)N(C)Cc1ccco1` | -31.48 | 4.926 |
| 10 | `CSc1ccc(C(=O)C2CCCN(C(=O)Cn3cnnn3)C2)cc1` (configuration not stated) | -8.036 | 3.743 |
| 11 | `O=C(NC1CCCC1)NC1CCC(C(=O)N2CCSCC2)CC1` (configuration not stated) | -1.769 | 5.858 |
| 12 | `Cc1c(Br)c(C(F)(F)F)nn1C(C)C(=O)O` (configuration not stated) | -2.049 | 0.4464 |
| 13 | `O=C1N(CCc2ccccc2)CCCC1(O)CNCc1ccc(F)cc1` (configuration not stated) | 15.69 | 0 |
| 14 | `COCCNC(=O)NCc1cccc(-n2ccnc2)c1` | 5.624 | 3.659 |
| 15 | `COc1ccc(CN2CCCC2c2cccc(F)c2)c(OC)c1OC` (configuration not stated) | -4.293 | 10.89 |
| 16 | `O=C1N[C@@H]2CCN(C(=O)C3CCC3)[C@@H]2C(=O)N1c1ccc(F)cc1` | - | -8.911 |
| 17 | `Cc1nnc(NCc2ccc(Br)cc2)o1` | -22.66 | -5.882 |
| 18 | `CC(C)Cn1ccnc1CNC(=O)NC(C)(C)c1nccs1` | -3.983 | 4.459 |
| 19 | `CC(C)C[C@H](NC(=O)Cc1csc(-c2cccc(Cl)c2)n1)C(=O)O` | -36.6 | 2.959 |
| 20 | `CN(C)S(=O)(=O)N1CCCC(c2cccc(Cc3ccccc3F)n2)C1` (configuration not stated) | -31.81 | 9.89 |
| 21 | `COC(=O)C1CCN(C(=O)c2ccc(N(C)S(C)(=O)=O)c(C)c2)CC1` | -9.601 | 4.132 |
| 22 | `CC(C)N(C)CCCNC(=O)c1cnn(C(C)C)c1C(F)(F)F` | -22.41 | 6.863 |
| 23 | `NC(=O)CCNC(=O)C1(N2CCCCC2)Cc2ccccc2C1` | -1.321 | -0.5525 |
| 24 | `Cc1nn(CC(C)C)c(N(C)C)c1CNCc1ccnn1C` | -39.57 | 2.326 |
| 25 | `O=C(c1cccc(=O)[nH]1)N(Cc1ccsc1)CC1CCCO1` (configuration not stated) | -7.819 | 0 |
| 26 | `COc1cc(C)c(NC(=O)NCCn2cccc2)cc1OC` | 6.401 | -1.657 |
| 27 | `CSCCC(=O)N[C@H]1CC[C@H](Nc2nccc(-c3ccncc3)n2)C1` | -8.01 | 1.205 |
| 28 | `Cc1csc(N2CCCN(C(=O)c3cnns3)CC2)n1` | 2.163 | 5.66 |
| 29 | `CSCCC(=O)N1C[C@@H](C)[C@](O)(C(C)C)C1` | -10.59 | 6.061 |
| 30 | `Cc1cc(C)c2c(OCC(=O)NC(C)C)nn(C)c2n1` | -21.2 | -1.667 |
| 31 | `CCCn1[nH]cc/c1=N\C(=O)CN1CCCC1c1c(C)nn(C)c1C` (configuration not stated) | -27.58 | -0.7519 |
| 32 | `Cc1cccc(NC(=O)NCCCn2nc3ccccn3c2=O)c1C` | 0.6837 | 3.759 |
| 33 | `c1nc(CSc2nnc(C3CC3)s2)cs1` | -13.26 | 9.244 |
| 34 | `Cc1cc(C)c(CNC(=O)NCC(c2ccccc2)N(C)C)c(=O)[nH]1` (configuration not stated) | -7.115 | -0.7576 |
| 35 | `O=C(Cc1cccc(F)c1)N1CCCCC1c1ccn2ccnc2n1` (configuration not stated) | -40.67 | 7.027 |
| 36 | `O=C(NCCOc1ccc(F)c(F)c1)NCc1ccncc1` | -8.947 | 3.333 |
| 37 | `C[C@H]1C[C@@H]2CCN(Cc3ccco3)C[C@H]2O1` | -5.799 | 9.244 |
| 38 | `O=C(C(CNCc1ccccc1O)c1ccccc1)N1CCOCC1` (configuration not stated) | -2.575 | -0.4484 |
| 39 | `CC(CCN(C)C)NC(=O)c1cccc(C(F)(F)F)c1F` (configuration not stated) | -22.76 | 3.933 |
| 40 | `O=C(CSCc1ccncc1)NCc1csc(Br)c1` | -10.64 | 4.843 |
| 41 | `C[C@@H]1CN(C(=O)C2(Cn3cccn3)CC2)CC[C@@]1(O)C1CCOCC1` | -5.818 | 8.04 |
| 42 | `O=C(O)c1cc(/C=C/c2ccccc2)ncn1` | -7.244 | 10 |
| 43 | `CC(C)N1CCC(C(=O)N2CCCN(c3ccccc3)CC2)CC1` | -21.97 | 10.45 |
| 44 | `CN1CCOC(CNCc2c(Cl)nc3ccccn23)C1` (configuration not stated) | 11.44 | 11.06 |
| 45 | `CCCN1CCC(N2CCOC(Cc3cccc(OC)c3)C2)CC1` (configuration not stated) | -2.827 | 3.139 |
| 46 | `CCc1nc2c(s1)C(N(C)C(=O)c1csnn1)CCC2` (configuration not stated) | - | 3.333 |
| 47 | `CCNc1cc2c(nn1)CCN(C(=O)Cc1c(C)nn(C)c1C)C2` | -5.691 | 5.202 |
| 48 | `Cc1nn(-c2ccccc2)c2c1c(C(F)F)cc(=O)n2CC(=O)O` | -16.05 | -2.609 |
| 49 | `CC(C)n1cc(N2CC(C(=O)N3CCC(C(N)=O)CC3)CC2=O)cn1` (configuration not stated) | -11.08 | 6.186 |
| 50 | `c1cnc(N2CCOC3(CCN(CC4CCOC4)CC3)C2)nc1` (configuration not stated) | 3.706 | 8.8 |
| 51 | `O=C(NCCc1cnccn1)C1(N2CCCCC2)Cc2ccccc2C1` | -16.08 | -1.657 |
| 52 | `CCc1nc(CN(C)C2CCN(Cc3nnc(C4CCC4)o3)C2)no1` (configuration not stated) | -23.43 | 3.704 |
| 53 | `Cc1nc2n(n1)CC(NCc1ccc(Cl)c3cccnc13)CC2` (configuration not stated) | -27.46 | 5.357 |
| 54 | `Cc1cccc(C(=O)N2CCCn3cnc(CN4CCCC4=O)c3C2)n1` | -47.82 | -0.9346 |
| 55 | `C=C(C)COc1cccc(CN(C)C(C)c2nccs2)c1` (configuration not stated) | 9.21 | 6.145 |
| 56 | `CC(NCc1cccnc1)c1cc2c(cc1Br)OCCO2` (configuration not stated) | -16.93 | 5.806 |
| 57 | `Cc1cccc(-c2ncc(CNC(C)CO)cn2)c1` (configuration not stated) | -43.55 | 6.494 |
| 58 | `COc1ncccc1C(=O)N1CCn2c(COCC3CC3)cnc2C1C` (configuration not stated) | -7.901 | 0.5464 |
| 59 | `N#Cc1cccc(N2CC3(CCN(C(=O)c4cccnc4)C3)CC2=O)c1` (configuration not stated) | -2.545 | 8.197 |
| 60 | `CC(=O)N1CCn2c(COCc3csc(C)n3)cnc2C1C` (configuration not stated) | -7.28 | 2.703 |
| 61 | `CC(C)CNC[C@H]1O[C@H](Cc2cc(-c3ccccn3)on2)CC[C@@H]1O` | - | 1.493 |
| 62 | `COCc1noc(CN2CC(=O)N(C)c3ccccc3C2=O)n1` | -10.08 | 2.128 |
| 63 | `COc1cc(CN(C)C(=O)NCCC(=O)NC2CCCC2)ccc1SC` | 5.345 | -5.435 |
| 64 | `CN1CC(=O)N(c2cnn(C)c2)CC12CCN(C(=O)c1ccsc1)C2` (configuration not stated) | -7.888 | 2.732 |
| 65 | `O=C(NCCCO)c1cnc(-c2ccccc2)nc1O` | -2.867 | 5.102 |
| 66 | `Cn1nccc1CNS(=O)(=O)c1cc(F)ccc1Br` | -32.54 | 1.657 |
| 67 | `COc1cccc(-c2cnc3n2CCC32CCN(C(C)=O)CC2)c1` | 9.11 | 9.816 |
| 68 | `Cc1cc(-c2cncnc2)nc(C2CCCN2S(C)(=O)=O)n1` (configuration not stated) | 2.58 | 6.154 |
| 69 | `CC(O)CN1CCc2[nH]nc(C(c3ccccc3)c3ccccc3)c2C1` (configuration not stated) | -25.65 | 4.972 |
| 70 | `COCCCNc1ncnc2c1CCN(C(=O)CC1C=CCC1)CC2` (configuration not stated) | -14.31 | 2.679 |
| 71 | `CN(C)C(=O)CN1C[C@@H]2CC[C@H](C1)N(Cc1c(F)cccc1Cl)C2` | -14.7 | -22.55 |
| 72 | `Cc1cnc(CN(C)C2CCN(Cc3sc(C)nc3C)C2)o1` (configuration not stated) | -10.8 | 9.639 |
| 73 | `CC(C)(C)Cc1noc2ncc(C(=O)N3CCCSCC3)cc12` | -10.42 | -1.948 |
| 74 | `CN(C)C(=O)CN1CCO[C@H]2CN(Cc3cccc(F)c3)C[C@H]21` | -14.87 | 9.945 |
| 75 | `COc1ccc(C(=O)COc2coc(CN3CCCCC3)cc2=O)cc1` | -32.31 | 1.22 |
| 76 | `O=C(c1cc(COc2ccc3c(c2)OCO3)[nH]n1)N1CCSCC1` | -21.84 | 4.082 |
| 77 | `FC(F)(F)CCN(Cc1ccon1)C1CCCC1` | -0.781 | 5.172 |
| 78 | `CC1COCCN1C(=O)c1cnccn1` (configuration not stated) | 8.479 | 7.921 |
| 79 | `CCS(=O)(=O)N1CCc2c(cccc2NCc2ncc[nH]2)C1` | -3.116 | -3.012 |
| 80 | `CN1CCN(C[C@@H]2OC[C@H]3CN(CCc4ccccc4)CC[C@H]32)CC1` | 1.936 | 11.11 |
| 81 | `O=C(c1ccccn1)N1CC[C@H]2C(=O)N(c3ccsc3)CCO[C@H]2C1` | 11.4 | 3.448 |
| 82 | `Cc1nnc(NC(=O)NCc2ccc(N3CCOCC3)nc2)s1` | -7.556 | 3.429 |
| 83 | `Cc1nc(C2CCCN2Cc2ccon2)no1` (configuration not stated) | -11.53 | 4.611 |

The first 7 entries again:

| structure | Pks13 thioesterase | TcHisRS |
|---|---|---|
| `O=C(c1ncoc1-c1ccco1)N1CCCN(c2ncccn2)CC1` | 1.487 | -0.8403 |
| `COc1cncc(N2CCN(Cc3ccco3)CC2)n1` | -10.73 | 20.69 |
| `O=C(NCCc1noc(C2CCCO2)n1)c1cn2ccsc2n1` (configuration not stated) | -10.69 | 7.2 |
| `CCN(C(=O)c1ccc2nnc(C3CCN(CCOC)C3)n2c1)C(C)C` (configuration not stated) | -35.15 | -1.031 |
| `O=C(CN1CCCC1Cn1cccn1)NC1CCOCC1` (configuration not stated) | -12.26 | 0 |
| `Cn1cncc1CN1CCc2nc3sccc3c(=O)n2CC1` | -25.1 | 3.714 |
| `CC(=O)N1CCCC2(CCN(c3nncs3)C2)C1` (configuration not stated) | 4.296 | -1.031 |

From ChEMBL document CHEMBL3988442, “University of Dundee, Small-Polar-MMV Screening Library” (2021).